Test results published in paper PMC8473724.

Protein sequences, listed by entry. Tags and fused reporters are not part of them. Residues count along the entry.
UniProt Q06187: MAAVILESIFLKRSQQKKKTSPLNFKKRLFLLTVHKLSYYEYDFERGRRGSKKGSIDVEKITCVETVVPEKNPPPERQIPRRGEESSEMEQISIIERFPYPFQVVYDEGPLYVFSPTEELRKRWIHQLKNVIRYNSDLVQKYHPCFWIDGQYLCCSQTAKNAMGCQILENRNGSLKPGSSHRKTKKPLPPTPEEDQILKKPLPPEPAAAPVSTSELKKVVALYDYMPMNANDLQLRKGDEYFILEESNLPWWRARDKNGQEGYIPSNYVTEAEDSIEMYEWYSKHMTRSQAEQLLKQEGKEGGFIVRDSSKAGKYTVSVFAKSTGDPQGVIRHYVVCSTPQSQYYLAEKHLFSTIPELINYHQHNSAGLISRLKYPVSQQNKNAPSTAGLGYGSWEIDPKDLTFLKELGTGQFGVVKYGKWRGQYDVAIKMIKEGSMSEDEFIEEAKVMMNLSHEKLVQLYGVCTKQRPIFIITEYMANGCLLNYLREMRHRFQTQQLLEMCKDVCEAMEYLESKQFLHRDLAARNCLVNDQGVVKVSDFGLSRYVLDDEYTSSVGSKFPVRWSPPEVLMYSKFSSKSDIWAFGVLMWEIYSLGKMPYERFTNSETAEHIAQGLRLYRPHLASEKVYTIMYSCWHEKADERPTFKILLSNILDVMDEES
UniProt P11912, residues 33-226: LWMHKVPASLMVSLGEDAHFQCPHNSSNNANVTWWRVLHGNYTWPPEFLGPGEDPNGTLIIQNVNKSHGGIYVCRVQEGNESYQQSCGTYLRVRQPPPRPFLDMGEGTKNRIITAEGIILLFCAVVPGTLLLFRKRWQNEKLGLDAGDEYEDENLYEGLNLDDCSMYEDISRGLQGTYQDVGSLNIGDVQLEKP
UniProt Q06481, residues 32-763: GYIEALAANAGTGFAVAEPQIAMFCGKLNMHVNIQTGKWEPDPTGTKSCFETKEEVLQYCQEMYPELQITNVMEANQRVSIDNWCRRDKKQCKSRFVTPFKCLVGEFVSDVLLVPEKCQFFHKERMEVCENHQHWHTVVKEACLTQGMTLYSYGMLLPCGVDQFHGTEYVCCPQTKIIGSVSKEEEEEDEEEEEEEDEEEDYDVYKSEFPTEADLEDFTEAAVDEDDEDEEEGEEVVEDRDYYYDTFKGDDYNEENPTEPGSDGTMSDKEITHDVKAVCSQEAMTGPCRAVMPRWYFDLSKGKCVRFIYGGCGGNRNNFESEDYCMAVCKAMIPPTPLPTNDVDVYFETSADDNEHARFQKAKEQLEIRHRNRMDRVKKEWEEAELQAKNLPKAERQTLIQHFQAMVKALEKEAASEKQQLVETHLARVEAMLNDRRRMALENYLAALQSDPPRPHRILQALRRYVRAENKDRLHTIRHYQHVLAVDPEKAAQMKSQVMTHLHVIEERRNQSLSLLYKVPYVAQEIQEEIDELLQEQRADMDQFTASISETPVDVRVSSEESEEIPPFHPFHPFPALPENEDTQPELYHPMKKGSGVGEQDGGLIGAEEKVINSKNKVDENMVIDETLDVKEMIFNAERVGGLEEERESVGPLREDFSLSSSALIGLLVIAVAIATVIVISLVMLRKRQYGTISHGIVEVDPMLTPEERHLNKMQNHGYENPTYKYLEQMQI
UniProt P20273, residues 20-847: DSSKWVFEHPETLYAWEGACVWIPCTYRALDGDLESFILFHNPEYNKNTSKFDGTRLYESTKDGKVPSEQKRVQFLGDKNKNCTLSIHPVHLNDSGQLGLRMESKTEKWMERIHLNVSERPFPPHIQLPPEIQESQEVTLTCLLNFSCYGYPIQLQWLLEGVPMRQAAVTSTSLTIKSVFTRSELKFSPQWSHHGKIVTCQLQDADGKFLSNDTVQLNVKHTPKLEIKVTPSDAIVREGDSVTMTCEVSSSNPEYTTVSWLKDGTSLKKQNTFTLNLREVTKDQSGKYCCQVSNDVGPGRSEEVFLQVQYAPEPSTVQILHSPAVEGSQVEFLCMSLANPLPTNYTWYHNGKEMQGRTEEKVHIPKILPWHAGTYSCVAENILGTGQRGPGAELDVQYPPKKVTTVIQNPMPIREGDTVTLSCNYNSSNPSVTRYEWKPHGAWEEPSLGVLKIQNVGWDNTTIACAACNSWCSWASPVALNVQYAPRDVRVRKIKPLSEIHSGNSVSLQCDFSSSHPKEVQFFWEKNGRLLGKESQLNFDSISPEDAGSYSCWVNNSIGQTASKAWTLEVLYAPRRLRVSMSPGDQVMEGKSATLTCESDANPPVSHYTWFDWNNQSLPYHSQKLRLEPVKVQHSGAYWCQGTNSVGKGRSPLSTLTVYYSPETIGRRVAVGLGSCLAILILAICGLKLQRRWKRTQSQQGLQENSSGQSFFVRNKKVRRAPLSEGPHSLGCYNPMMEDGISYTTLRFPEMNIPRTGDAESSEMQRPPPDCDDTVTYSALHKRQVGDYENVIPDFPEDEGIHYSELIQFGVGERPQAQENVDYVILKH

Target: T1, FLAG-PTP1B D181A-Y46F substrate trapping mutant (full-length) (UniProt P18031)
T1 sequence: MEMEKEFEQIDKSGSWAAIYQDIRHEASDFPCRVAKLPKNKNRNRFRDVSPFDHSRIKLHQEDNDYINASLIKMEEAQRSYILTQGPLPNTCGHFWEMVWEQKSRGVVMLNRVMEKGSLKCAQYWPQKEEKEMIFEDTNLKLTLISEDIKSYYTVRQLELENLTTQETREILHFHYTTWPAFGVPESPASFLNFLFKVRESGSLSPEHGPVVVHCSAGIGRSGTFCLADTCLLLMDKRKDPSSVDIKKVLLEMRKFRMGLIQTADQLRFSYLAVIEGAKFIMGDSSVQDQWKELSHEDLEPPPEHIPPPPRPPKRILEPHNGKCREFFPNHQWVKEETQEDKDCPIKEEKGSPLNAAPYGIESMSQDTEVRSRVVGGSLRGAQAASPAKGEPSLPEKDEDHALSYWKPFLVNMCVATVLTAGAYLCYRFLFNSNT
Test: affinity purification with mass spectrometry; SILAC substrate trapping: anti-FLAG co-IP from PTP1B KO Ramos cells with empty vector, FLAG-PTP1B-D181A-Y46F or its Δ406-435 form; elution with FLAG peptide, SDS-PAGE, in-gel digestion, LC-MS; hits: mean SILAC ratio >= 2 and P < 0.05 (n = 3)

| binding | Substance |
| --- | --- |
| binds | Bruton tyrosine kinase (BTK) (from UniProt Q06187 1-659) (enzyme) |
| binds | Igα (CD79A), BCR signaling subunit α chain (from UniProt P11912 33-226) (receptor) |
| binds | amyloid-like protein 2 (APLP2) (from UniProt Q06481 32-763) |
| binds | CD22 (cluster of differentiation-22), endogenous (from UniProt P20273 20-847) (receptor) |

These are yes or no findings as the source states them, for the method shown. In cells and extracts the contact can be indirect. A yes stands for co-enrichment or nearness to the bait. Other partners may have been found. Sequences can lack the tags named with a protein.
